Where “and” joins values, the source holds several entries; their conditions need not be identical. Identical values can stand only once. At least one read-out could not be matched to a standard name with certainty.
Tested on: mouse uterus
Assay: Antiuterotrophic test on infantile mouse (anti-estrogen activity)
Assay type: in vivo
Text: This test is fully described in Cancer Treatment Reviews 1984, 11, 147, and J.Med.Chem., 1984, 27, 1439.

## Cc1c(-c2ccc(O)cc2)n(CCCCCCN2CCCC2)c2ccc(O)cc12 [Compound 6, 5-Hydroxy-2-(4-hydroxyphenyl)-3-methyl-1-[6-pyrrolidino-hexyl]-indole]
Dose 5 ug (per animal)
  Antiuterotrophic Test Inhib. (%): 100% and 73%
Dose 25 ug (per animal)
  Antiuterotrophic Test Inhib. (%): 97%
